# The campaign covered roughly 420,000 compounds. About 75 (0.02%) were called active. These results got no clear call from the source, so the numbers are uncertain. Calls follow the shape of the dose curve; as a rule, active = well fitted activation curve with a large enough effect; inconclusive = small, poorly fitted or top-dose-only effect; inactive = no such curve, though single readings can be large or run the other way.
# Experiment: qHTS for Inducers of the Endoplasmic Reticulum Stress Response (ERSR) in Human Glioma: qHTS; also: nearly all actives have a fitted effect of over 35% in size
# Settings: U87-MG GRP78 promoter luciferase reporter, 16 h
# Potency is read from the fitted curve at half-maximal effect.
row,Structure (SMILES),Potency
1,CCc1cc(C(=O)NCC2(N3CCCCC3)CCCCC2)sc1C,inconclusive: 44.7 µM

# Source: PubChem BioAssay AID602332 (National Center for Advancing Translational Sciences (NCATS), 2012)
